Values from PubChem BioAssay AID1259254 (NCATS, 2017)

Assay: 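Gene knock-downs that lead to re-replication, shown by excess G2 DNA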 (primary screen)
Cells: human HCT116 colorectal cancer cells
Reagent: single siRNA against human genes
Time to read-out: 3 days
Measured: 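Imaged Hoechst DNA stain sorts each cell into a cycle phase by DNA amount; per plate, G2 fraction set to 0% for non-targeting and 100% for GMNN siRNA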
Direction: G2 robust z-score: higher = more G2 cells, more excess DNA replication
Rule for the call: 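An siRNA counts as active if its G2 robust z-score lies at least 5 MADs above the screen median; here such calls match roughly 38% of GMNN control or more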
Shown is a random part of about 59,000 reagents tested. In the full data, about 1,550 (2.6%) got an active call. 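G2 share is only a proxy for re-replication; each gene was hit by three separate siRNAs, and active genes were retested.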 Unmarked entries are inactive. The numbers tell different reagents against one gene apart. Not all columns of the deposit are shown. The record does not give: the amount of reagent.

TIGD4 #1: G2 robust z-score = -0.0756
TIGD4 #2: G2 robust z-score = 4.4
TIGD4 #3: G2 robust z-score = -0.728
APLF #1: G2 robust z-score = -0.852
APLF #2: G2 robust z-score = -0.497
APLF #3: G2 robust z-score = -0.442
PPP1R3C #1: G2 robust z-score = -0.317
PPP1R3C #2: G2 robust z-score = -0.00819
PPP1R3C #3: G2 robust z-score = -0.106
STC2 #1: G2 robust z-score = 1.87
STC2 #2: G2 robust z-score = -0.668
STC2 #3: G2 robust z-score = 1.33

2 entries from above, ordered by “G2 robust z-score”, highest first:
PPP1R3C #2: G2 robust z-score = -0.00819
PPP1R3C #3: G2 robust z-score = -0.106

Next results follow.
CCDC185 #1: G2 robust z-score = 0.617
CCDC185 #2: G2 robust z-score = 0.411
CCDC185 #3: G2 robust z-score = -0.692
MAPRE3 #1: G2 robust z-score = 0.637
MAPRE3 #2: G2 robust z-score = -0.647
MAPRE3 #3: G2 robust z-score = 3.45
IFNW1 #1: G2 robust z-score = 3.92
IFNW1 #2: G2 robust z-score = -0.455
IFNW1 #3: G2 robust z-score = -0.241
FKBP6P2 #1: G2 robust z-score = -0.592
FKBP6P2 #2: G2 robust z-score = -1.25
FKBP6P2 #3: G2 robust z-score = -0.877
